Laboratory results taken from PubChem BioAssay AID1347076 (National Center for Advancing Translational Sciences (NCATS), 2019).
The whole screen tested about 400,000 compounds, of which about 13,000 (3.2%) were called active. Inconclusive results, whose numbers are uncertain, are shown with a selection of clear calls. Calls come from the whole dose curve; as a rule, active = well fitted cell-killing curve with a large enough effect; inconclusive = small, poorly fitted or top-dose-only effect, or effect the other way; inactive = flat fitted curve, though single readings scatter. Where the call is inconclusive, the potency comes from a doubtful curve fit.

Experiment: qHTS assay for MDR1-selective chemotherapeutics: Primary screen using the drug-selected MDR subline cells KB-V1; note: nearly all actives have a fitted effect of over 60% in size
Settings: KB-V1 MDR cells viability, CellTiter-Glo, 72 h; activity change, negative = cytotoxicity: at 46.1 µM (top of the series)
Outline: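 Cytotoxicity toward P-gp-expressing KB-V1 cells was determined as loss of CellTiter-Glo luminescence after 72 h at 37 degrees C. Compounds were tested in quantitative HTS format across a concentration range, with curves fitted to normalized data.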
% is set by controls: 0 for no effect and ±100 for the full control effect; potency is the fitted concentration of half-maximal effect.

SMILES | Potency | activity change, negative = cytotoxicity
COc1ccc(S(=O)(=O)N2CCN(Cc3cc(=O)n4ccccc4n3)CC2)cc1 | inconclusive: 18.4 µM [cytotoxic, single point] | 
CCCCc1nn2c(=O)cc(COC(=O)c3cccc(NC(=O)c4cccs4)c3)nc2s1 | inactive | 
CC1=C(C(N)=O)C(c2cccs2)n2ncnc2N1 (stereo unspecified) | inconclusive: 29.1 µM [rising, single point] | 
COc1cccc(SCc2noc(C(=O)NC(C)C)c2C(=O)NC(C)C)c1 | inactive | 
CC1CN(Cc2cn(C)nc2-c2ccc(Oc3ccccc3)cc2)CCN1C (stereo unspecified) | inconclusive: 8.2 µM [cytotoxic, partial curve] | 
O=C(Nc1ccccc1)c1oc2ccccc2c1NC(=O)C1CC1 | inconclusive: 3.26 µM [cytotoxic, partial curve, poor fit] | 
CC(C)(C)c1ccc(OCC(=O)O)cc1 | inactive | 
Cc1ccc(S(=O)(=O)c2cc(N3CCOCC3)nc(-c3ccccc3)n2)cc1 | inconclusive: 2.06 µM [cytotoxic, partial curve, poor fit] | 
Cc1cccc(/C=C/C(=O)c2cc(Br)ccc(=O)c2O)c1 | inconclusive: 23.1 µM [cytotoxic, single point] | 
Clc1ccc(-c2cn(-c3nc4ccccc4s3)nn2)cc1 | inactive | 
O=C(CCCOc1ccc(Cl)cc1)NC1CCCCC1 | inactive | 
CN(C)S(=O)(=O)c1cccc(C(=O)OCC(=O)c2c(N)n(C)c(=O)n(C)c2=O)c1 | inactive | 
O=C(NC1CCC1)C1CCC(=O)N(Cc2ccccc2F)C1 (stereo unspecified) | inconclusive: 25.9 µM [rising, single point] | 
COc1cc(C(=O)NCCOc2ccc(C)c(C)c2)cc(OC)c1OC | inactive | 
Cc1ccc2c(c1)N(CC(=O)NCc1cccs1)C(=O)CO2 | inconclusive: 16.4 µM [cytotoxic, single point] | 
O=C(NCCc1ccccc1)c1ccc(CSc2nc3cccnc3n2Cc2ccccc2)cc1 | inconclusive: 8.2 µM [cytotoxic, partial curve, poor fit] | 
CCN(CC)CCSc1nnc(Nc2ccccc2)n1-c1ccccc1 | inconclusive: 0.0058 µM [cytotoxic, full curve, poor fit] | 
CCc1nc(N2CCN(Cc3ccc4c(c3)OCO4)CC2)c2oc3ccccc3c2n1 | active: 10 µM | 
O=C(NN=C1CCC(=NNC(=O)c2cccnc2)CC1)c1cccnc1 | inconclusive: 29.1 µM [rising, single point] | 
O=C(NCC1(N2CCOCC2)CCCCC1)c1ccc(S(=O)(=O)Nc2ccccc2F)cc1 | inconclusive: 14.6 µM [cytotoxic, partial curve] | 
Cc1cccc(CSCCNC(=S)Nc2ccccc2)c1 | active: 18.4 µM | 
CC1(C(=O)Nc2ccccc2Cc2ccccc2)CCN1Cc1ccccc1Cl (stereo unspecified) | inconclusive: 23.1 µM [cytotoxic, single point] | 
CCC1(C)CN=C(c2ccccc2)NC1 (stereo unspecified) | inactive | 
CS(=O)(=O)c1ccc2nc(NC(=O)c3ccccc3Cl)sc2c1 | inactive | 

Random excerpt: 2 records from the list.
SMILES | Potency | activity change, negative = cytotoxicity
CC(C)(C)c1ccc(OCC(=O)O)cc1 | inactive | 
Cc1ccc(S(=O)(=O)c2cc(N3CCOCC3)nc(-c3ccccc3)n2)cc1 | inconclusive: 2.06 µM [cytotoxic, partial curve, poor fit] | 

The list goes on:

SMILES | Potency | activity change, negative = cytotoxicity
CCn1c(SCC(=O)NNC(=O)c2ccc(OC)cc2)nnc1-c1ccco1 | inconclusive: 18.4 µM [rising, partial curve, poor fit] | 
COc1ccc(NC(=O)C2CCC(CNS(=O)(=O)c3csc(C(N)=O)c3)CC2)cc1OC (stereo unspecified) | inconclusive: 29.1 µM [cytotoxic, single point] | 
O=C(O)c1cccc(NC(=S)NC(NC(=O)c2ccco2)C(Cl)(Cl)Cl)c1 (stereo unspecified) | inconclusive: 29.1 µM [cytotoxic, single point] | 
O=C(NCc1ccccc1)C(c1ccc(C(F)(F)F)cc1)n1c(=O)c(-c2cc3ccccc3[nH]2)nc2ccccc21 (stereo unspecified) | inconclusive: 18.4 µM [cytotoxic, single point] | 
Cc1cccc(N(CC(=O)NC2CCCC2)C(=O)CCC(=O)Nc2ccccn2)c1 | inconclusive: 18.4 µM [cytotoxic, single point] | 
COc1ccccc1-c1sc2ccccc2c1-c1ccc(OCCN2CCCCC2)cc1 | inactive | 
COc1cc(CC(=O)NNC(=O)c2cccs2)cc(OC)c1OC | inconclusive: 23.1 µM [rising, single point] | 
COc1ccc(CCN(C)C(=O)c2ccc(C)c(S(=O)(=O)N3CCCCC3)c2)cc1OC | inconclusive: 29.1 µM [cytotoxic, single point] | 
CC(C)CC(=O)Nc1ccc(C(=O)NNC(=S)NC(=O)C2CCCCC2)cc1 | active: 10.3 µM | 
CC(=O)NC(c1ccco1)c1cc(F)c2cccnc2c1O (stereo unspecified) | inactive | 
Cc1ccnc2nc(C(=O)Nc3nnc(CC(C)C)s3)nn12 | inconclusive: 9.2 µM [rising, partial curve, poor fit] | 
COc1ccc(NC(=O)CCCN2C(=O)/C(=C\c3ccco3)SC2=S)cc1 | inconclusive: 20.6 µM [cytotoxic, single point] | 
O=C(NC1CCCC1)C1CCCN1C(=O)Oc1ccccc1 (stereo unspecified) | inactive | 
CN(CC(=O)Nc1cccc(F)c1)C(=O)c1cn(-c2ccccc2)nc1-c1cccs1 | inconclusive: 14.6 µM [cytotoxic, single point] | 
CCc1ccccc1NC(=O)Cn1nnc(C(=O)NCc2ccco2)c1N | inconclusive: 16.4 µM [cytotoxic, single point] | 
COc1cccc(NC(=S)NC(=O)/C=C/c2ccco2)c1 | inconclusive: 10.3 µM [cytotoxic, partial curve, poor fit] | 
COc1ccc(C(=O)c2c(C(F)(F)F)oc3c2C(=O)c2ccccc2C3=O)cc1 | inconclusive: 29.1 µM [cytotoxic, partial curve, poor fit] | 
CCC(=O)Nc1ccccc1Nc1cc(C#N)c(C#N)cc1[N+](=O)[O-] | inactive | 
Cc1cc(C)nc(SCSc2nc(C)cc(C)n2)n1 | inconclusive: 5.17 µM [cytotoxic, full curve] | 
Fc1ccc2[nH]c3c(N4CCc5ccccc5C4)ncnc3c2c1 | active: 6.51 µM | 
CCN1CCN(Cc2ccc(NC(=O)c3ccc(C)c(NC(=O)c4ccnnc4)c3)cc2C(F)(F)F)CC1 | inactive | 
COc1ccc(OC)c(NC(=O)CSc2nnc(Cc3cccn3C)n2CCc2ccccc2)c1 | active: 7.31 µM | 
COc1ccccc1N1CCc2c(C)nc3c(OC)cccc3c21 | active: 20.6 µM | 
C[C@H](CO)N1C[C@H](C)[C@@H](CN(C)C(=O)NC2CCCCC2)Oc2ccc(NC(=O)C3CCCCC3)cc2C1=O | inactive | 

SMILES | Potency | activity change, negative = cytotoxicity
Cc1ccc2nc(SCc3nc4cc(Cl)ccc4c(=O)[nH]3)[nH]c2c1 | inactive | 
Cc1ccc(NCC(=O)c2ccccc2)cc1Cl | inconclusive: 32.6 µM [cytotoxic, partial curve, poor fit] | 
CCCC(=O)NC(=S)Nc1ccc(C(C)=O)cc1 | inactive | 
CCN(CC)CCCNC1=C(Cl)C(=O)c2ccccc2C1=O | inconclusive: 23.1 µM [cytotoxic, single point] | 
COC(=O)c1c(C)n(-c2ccc(OC)cc2)c2ccc(O)cc12 | inactive | 
O=C(NCCCN1CCOCC1)C(=O)c1c[nH]c2ccccc12 |  | inconclusive: 0%
Cc1cc(C)nc(N(C#N)CC(=O)N2CCC(C(N)=O)CC2)n1 | inconclusive: 2.91 µM [cytotoxic, partial curve, poor fit] | 
CCN(CC)S(=O)(=O)c1cccc(NC(=O)Nc2cccc(C(F)(F)F)c2)c1 | active: 8.2 µM | 
O=C(CCNC(=O)C1CCN(S(=O)(=O)c2ccccc2)CC1)NCc1ccc(Cl)c(Cl)c1 | inconclusive: 13 µM [rising, partial curve, poor fit] | 
CC(C)[C@H](COC=O)NC(=O)[C@H]1O[C@@H](n2ccc(N)nc2=O)[C@H](O)[C@@H]1O | inconclusive: 20.6 µM [rising, single point] | 
CC(=O)c1ccccc1NC(=O)COC(=O)C1CCCN1S(=O)(=O)c1ccccc1F (stereo unspecified) | inconclusive: 32.6 µM [rising, single point] | 
COc1ccccc1NC(=O)COC(=O)Cn1c(C)csc1=O | inactive | 
COc1ccccc1N(CC(=O)Nc1ccc2c(c1)OCCO2)S(=O)(=O)c1ccc(C)cc1 | inconclusive: 5.8 µM [cytotoxic, partial curve, poor fit] | 
O=C(NCCc1c[nH]c2ccccc12)C(=O)NCC1OCCCN1S(=O)(=O)c1ccccc1 (stereo unspecified) | inconclusive: 18.4 µM [cytotoxic, single point] | 
CCc1ccc(NC(=O)COc2ccc(F)cc2C(=O)c2cnn(-c3ccccc3)c2)cc1 | inconclusive: 29.1 µM [cytotoxic, single point] | 
Nc1cc(N)cc(C(=O)OCC(=O)Nc2cc(S(=O)(=O)N3CCCCC3)ccc2Cl)c1 | inconclusive: 8.2 µM [cytotoxic, partial curve] | 
CCCCN(CC)CCNC(=O)Cn1cnc2sc(C)c(S(=O)(=O)N3CCN(c4ccccc4OC)CC3)c2c1=O | inconclusive: 29.1 µM [rising, single point] | 
CCC/C(=C1/c2ccccc2C(=O)N1c1ccccc1)c1ccc2[nH]ccc2c1 | inconclusive: 29.1 µM [cytotoxic, single point] | 
CCOC(=O)c1ccc(NC(=O)c2nc[nH]c2C(=O)NCc2ccccc2)cc1 | inconclusive: 0.0065 µM [cytotoxic, full curve] | 
O=C(NCCc1ccccc1)C1CCCN1C(=O)Nc1ccc(Cl)cc1 (stereo unspecified) | inactive | 
COC(=O)c1cc2c(=O)c3ccccc3oc2nc1/C=C/N(C)C | inactive | 
O=C(NCC1CCCO1)c1cc(-c2ccccc2)nc2ccc(Br)cc12 (stereo unspecified) | inactive | 
COc1ccc(N(CC(=O)N2CCC(C)CC2)S(=O)(=O)c2c(C)nn(C)c2C)cc1 | inconclusive: 32.6 µM [rising, single point] | 
